# Measurements as given in PubChem BioAssay AID493014 (National Center for Advancing Translational Sciences (NCATS), 2011).
# The other results are listed elsewhere or left out. The main result of the screen is listed elsewhere. These columns were measured beside it and carry no call. Compounds called inactive in the main read-out are mostly missing here. Words in brackets tell the shape of the fitted curve; partial curves, single points and poor fits give uncertain potencies.
# Assay: qHTS Assay to Find Inhibitors of Chronic Active B-Cell Receptor Signaling
# Details: ABC-DLBCL IkBa-CBG/CBR reporter, luminescence ratio (green luciferase fused to IkBa over red control in TMD8 lymphoma cells), 4 h
# In short: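 Cell line TMD8 (human ABC DLBCL), stably expressing tet-inducible CBG68-IkBa fusion and CBR; IMDM/0.5% FBS; cpd up to 46 uM; dox induction, 4 h, 37C/5% CO2; dual luminescence; green/red ratio; MG132 control.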
# [1] = measured here: CBR red luminescence, cell number
# [2] = measured here: IkBa-CBG green luminescence
compound,measurement,setting,value
Cc1cccc(NC(=O)c2ccc3c(c2)OCCO3)n1,AC50,[1],"35.5 µM [falling, single point]"
Cc1nc(Cl)cc(N/N=C/c2ccc(O)cc2O)n1,AC50,[1],"3.55 µM [falling, full curve]"
NC(=O)NC(=O)COC(=O)CCCSc1nc2ccccc2s1,AC50,[1],"7.94 µM [falling, partial curve]"
Cc1ccc(NC(=O)c2sc3ncnc(N4CCN(c5ccccn5)CC4)c3c2C)c(C)c1,AC50,[1],"3.55 µM [falling, full curve, poor fit]"
C(=C\c1ccccc1)/CSc1nnc(-c2ccccc2)n1Cc1ccco1,AC50,[2],"17.8 µM [falling, single point]"
Cc1cccc(NC(=O)CCCN2C(=O)c3cccc4cccc(c34)C2=O)c1,AC50,[1],"1.26 µM [rising, full curve, poor fit]"
COc1ccc2c(c1)C(=O)CC(c1ccc3c(c1)OCCO3)O2 (stereo not given),AC50,[1],"3.98 µM [rising, single point]"
Cc1cc(C)cc(NC(=S)NCCN(C2CCCCC2)C2CCCC2)c1,AC50,[1],"17.8 µM [falling, single point]"
Cc1cccc(N=C2NC(=O)/C(=C/c3cn(C)c4ccccc34)S2)c1,AC50,[1],"5.17 µM [falling, full curve]"
CC1(c2ccccc2)NC(=O)N(CC(=O)Nc2cc3c(cc2Br)OCCO3)C1=O (stereo not given),AC50,[1],"29.1 µM [rising, single point]"
CC(=O)n1c(C=Nc2ccc(Cl)cc2)c(O)c2ccccc21,AC50,[1],"10 µM [falling, partial curve, poor fit]"
CC1(C)CC(=O)C2=C(C1)c1c(ccc3ccccc13)NC2c1ccc(OCC(=O)O)cc1 (stereo not given),AC50,[1],"35.5 µM [falling, single point]"
CC(C)OC(=O)NCCOC(=O)Nc1cccc(Cl)c1,AC50,[1],"2.51 µM [rising, partial curve, poor fit]"
O=C(Nc1ccc(Cl)c([N+](=O)[O-])c1)c1ccc2c(c1)OCCO2,AC50,[1],"35.5 µM [falling, single point]"
Cc1ccc(-c2nn(-c3ccccc3)cc2CO)o1,AC50,[1],"16.4 µM [rising, partial curve, poor fit]"
Cc1cc(NC2CCCCC2)nc2ccccc12,AC50,[1],"2.82 µM [rising, full curve, poor fit]"
same,AC50,[2],"15.8 µM [falling, partial curve]"
Cc1ccc(NC(=O)C2CCN(c3ncnc4c3nc3n4CCCCC3)CC2)nc1,AC50,[1],"10 µM [falling, partial curve]"
Cc1ccc(C)c(OCC(=O)NCC(C)(C)N2CCOCC2)c1,AC50,[1],"18.4 µM [rising, partial curve, poor fit]"
CCCCN(C)C(=O)C1CCN(CCCc2ccccc2)CC1,AC50,[1],"1.64 µM [rising, partial curve, poor fit]"
CCCc1ccc(OCC(=O)NNC(=S)NC(=O)c2ccco2)cc1,AC50,[1],"18.4 µM [rising, single point]"
same,AC50,[2],"16.4 µM [falling, partial curve, poor fit]"
COc1ccc(-c2cc(C(=O)O)nc3ccc4ccccc4c23)cc1OC,AC50,[1],"14.1 µM [falling, partial curve]"
same,AC50,[2],"35.5 µM [falling, single point]"
C(=N\Nc1nc(-c2ccccc2)cs1)/c1cccnc1,AC50,[1],"25.9 µM [falling, single point]"
O=C(c1cc2nc(C3CC3)cc(C(F)F)n2n1)N1CCOCC1,AC50,[1],"6.51 µM [rising, single point]"
O=C(C1CC(c2ccc(F)cc2)=NO1)N1CCCCC1 (stereo not given),AC50,[1],"18.4 µM [falling, single point]"
COC(=O)C(NC(=O)c1cccnc1Cl)C(C)C (stereo not given),AC50,[1],"5.62 µM [rising, partial curve, poor fit]"
CCC(=O)N(CCN1CCOCC1)Cc1cc2cc3c(cc2nc1Cl)OCO3,AC50,[1],"14.1 µM [rising, single point]"
COc1ccc(-c2ncncc2-c2ccc(OC)c(OC)c2)c(O)c1,AC50,[1],"35.5 µM [falling, single point]"
COC(=O)[C@H](Cc1ccc(O)cc1)NC(=O)Cn1cnc2c(NCc3ccccc3)ncnc21,AC50,[1],"5.8 µM [rising, full curve, poor fit]"
CCOCc1nnc(NC(=O)c2cccc(OC)c2)s1,AC50,[1],"35.5 µM [falling, single point]"
Cn1cnnc1SCC(=O)Nc1ccc2ccccc2c1,AC50,[1],"23.1 µM [rising, partial curve, poor fit]"
COc1cccc(/C=C2\SC(=S)N(CCCC(=O)Nc3ccc(C(=O)O)cc3)C2=O)c1,AC50,[1],"1.58 µM [falling, full curve]"
O=C(CSc1nnc(-c2ccc3c(c2)OCO3)o1)Nc1ncc(Cl)cc1Cl,AC50,[1],"16.4 µM [rising, partial curve]"

# Two neighbouring entries from above, quoted:
compound,measurement,setting,value
COc1ccc(-c2ncncc2-c2ccc(OC)c(OC)c2)c(O)c1,AC50,[1],"35.5 µM [falling, single point]"
COC(=O)[C@H](Cc1ccc(O)cc1)NC(=O)Cn1cnc2c(NCc3ccccc3)ncnc21,AC50,[1],"5.8 µM [rising, full curve, poor fit]"
